# Measurements reported in patent publication US10201625B2, “Radiolabelled octreotate analogues as PET tracers” (IMPERIAL COLLEGE, priority 2011, dated 2019).
# Chains of the proteins cited; added tags and fusions are not shown. Lines headed by an entry give the natural chain unless they say otherwise; changes in a name come on top.
# UniProt P30680: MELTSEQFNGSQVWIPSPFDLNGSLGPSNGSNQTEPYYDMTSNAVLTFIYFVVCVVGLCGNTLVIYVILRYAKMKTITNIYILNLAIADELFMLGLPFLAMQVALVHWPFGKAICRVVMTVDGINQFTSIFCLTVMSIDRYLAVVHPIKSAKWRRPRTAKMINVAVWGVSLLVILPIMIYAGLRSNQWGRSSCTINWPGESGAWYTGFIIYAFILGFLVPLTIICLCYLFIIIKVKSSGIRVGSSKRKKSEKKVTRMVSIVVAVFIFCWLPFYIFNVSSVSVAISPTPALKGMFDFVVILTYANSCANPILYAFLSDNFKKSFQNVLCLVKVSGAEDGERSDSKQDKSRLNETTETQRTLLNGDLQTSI
# For at least one compound, name, drawing or mass did not settle the structure.
# Molecular target: T1, somatostatin receptor (Rattus norvegicus, UniProt P30680)
# T1 construct: endogenous in cells; host or cells: AR42J pancreatic tumour cells (whole cells)
# Assay: Competitive binding assay displacing [111In]-DTPA-Octreotide (OctreoScan) on AR42J tumour cells
# Settings: read-out: Alkyne analogue (a) IC50
structure (smiles),measurement,value
"C#CC(=O)NCC(=O)NCCOCCOCCOCCOCCOCCOCCC(=O)N[C@H](Cc1ccccc1)C(=O)N[C@H]1CSSC[C@@H](C(=O)N[C@H](C(=O)O)[C@@H](C)O)NC(=O)[C@H]([C@@H](C)O)NC(=O)[C@H](CCCCN)NC(=O)[C@@H](Cc2c[nH]c3ccccc23)NC(=O)[C@H](Cc2ccc(O)cc2)NC1=O [1a, G-PEG-TOCA]",IC50,5.3 ± 0.75 nM
